No constants are given. Whether binding was seen depends on the method and setting. Some entries that bind do so weakly or less than the wild type.
Target: T1, Mouse VEGF-Bio (mouse) (UniProt Q00731)
T1 sequence (biotinylated (site not stated), looked up): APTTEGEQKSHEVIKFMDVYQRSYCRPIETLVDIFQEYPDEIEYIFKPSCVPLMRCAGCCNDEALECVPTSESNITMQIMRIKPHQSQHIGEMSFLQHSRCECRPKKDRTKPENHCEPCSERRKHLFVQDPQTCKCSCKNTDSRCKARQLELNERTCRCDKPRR
Assay: flow cytometry, yeast-displayed VHH

binding: binds
B1: Y20A6, anti-human VEGF165 single domain heavy chain antibody clone displayed on yeast (VHH, not shown: large carriers; small tags and cut ends)
VHH: AVQLVESGGGLVQAGGSARLSCAASGSTSDIVSMAWYRQAPGKERDLVAAVFAEDWRYVEDSVRGRFTISRDNTKNTVDLQMNNLKPEDTAIYYCNVRLRITDERRRERLDYWGQGTQVTVSS

Source: patent US20240287168A1 (SHANGHAI JEMINCARE PHARMACEUTICAL, published 2024)
